Assay results as given in PMC8502973 (Frontiers in Physiology, 2021).

Test: Long-term: hormone and metabolic blood parameters
Assay type: in vivo, male DIO Sprague Dawley rats
Description: Male DIO Sprague Dawley rats (n = 24) were generated as outlined above and were 644.5 g (50 g) at the start of drug treatment. The animals were divided into three treatment groups (n = 8 each) balanced for body weight, body weight gain during baseline, food intake, and Lee Index [body weight^(1/3)/snout to anus length (mm)] ([Lee, 1929]; [Simson and Gold, 1982]) as an indicator of adiposity (Figure 2). In a subset of the animals (n = 5 per group, balanced for prior mentioned criteria), Mini-Mitter transponders (PDT-4000 E-Mitter, Respironics Inc.) were implanted posterior to the left scapula at least 9 days prior to start of baseline measures to ensure sufficient recovery time. Body temperature and gross motor activity were continuously recorded via these transponders. […] High fat diet and water were provided ad libitum and intake was recorded with daily hopper and water bottle weighs at time of body weight assessment just prior to drug administration. Blood samples were taken at start of intervention by tail vein bleeding and via cardiac puncture under an isoflurane induced surgical plane of anesthesia at euthanasia. Animals were euthanized on treatment day 29, 4 h after receiving a dose of their assigned treatment, via decapitation under isoflurane anesthesia immediately following blood draw. Body composition was assessed on carcasses.
Commercially available enzyme-linked immunosorbent assays (ELISA) were used for quantitative assessment of leptin (MilliporeSigma, Burlington, MA) and insulin (MilliporeSigma, Burlington, MA); all with intra-assay CV < 4%. Levels of sodium, potassium, glucose, cholesterol (total and HDL), triglycerides, alanine transaminase (ALT), and aspartate transaminase (AST) were determined in serum obtained at sacrifice by cardiac puncture on a Modular P chemistry analyzer (Roche Diagnostics, Germany) at the University of Washington NORC Core, Seattle, WA.

oxytocin [OXT]
plasma leptin change pre- vs. post-treatment (OXT, ELISA, 95% CI −10.6 to −4.49, p < 0.0001): -7.53 ng/mL
serum triglycerides, difference vs vehicle (OXT, post-treatment, 95% CI −18.2 to −101.5, p = 0.004): -59.9 mg/dL
Insulin, post-treatment (after 28-day Tx, plasma, ELISA, n = 8, Mean ± SD, ANOVA p 0.231): 4.42.8 μg/L
Leptin, post-treatment (after 28-day Tx, plasma, ELISA, n = 8, Mean ± SD, ANOVA p 0.353): 24.410.4 μg/L
Glucose, post-treatment (after 28-day Tx, serum, n = 8, Mean ± SD, ANOVA p 0.231): 10.11.2 mmol/L
HDL, post-treatment (after 28-day Tx, serum, n = 8, Mean ± SD, ANOVA p 0.492): 0.70.1 mg/dL
Cholest, post-treatment (after 28-day Tx, serum, n = 8, Mean ± SD, ANOVA p 0.535): 2.20.2 mmol/L
